# Measurements as given in patent US20110301209A1, “METHODS AND COMPOSITIONS FOR THE TREATMENT OF CANCER, TUMORS, AND TUMOR-RELATED DISORDERS” (TRAGARA PHARMACEUTICALS, INC., priority 2007, published 2011).
# For at least one compound, name, drawing or mass did not settle the structure.
# Tested on: MV522 NSCLC
# Settings: broad dosage range
# Source text: The models evaluated included MV522, A549 and H460 NSCLC. […] The experiments used a tumor growth delay (TGD) endpoint based on median time to endpoint, i.e., tumor volume of 1000-2000 mm^3, and treatments were compared to untreated controls using the Logrank test for statistical significance.
structure (smiles),measurement,value
"Cc1ccc(-c2cc(C(F)(F)F)nn2-c2ccc(S(N)(=O)=O)cc2)cc1 [celecoxib, reference compound]",Dose-dependent TGD,did not produce dose-dependent TGD
